Results taken from the supplement of paper PMC11006884.
The entries are a selection whose mix differs from that of the whole data set.

By UniProt entry, the sequences of proteins in these tests, tags left out. Where a name states a change or a piece, a line headed by the entry shows the natural chain unless it says otherwise.
UniProt P17980, whole entry, looked up: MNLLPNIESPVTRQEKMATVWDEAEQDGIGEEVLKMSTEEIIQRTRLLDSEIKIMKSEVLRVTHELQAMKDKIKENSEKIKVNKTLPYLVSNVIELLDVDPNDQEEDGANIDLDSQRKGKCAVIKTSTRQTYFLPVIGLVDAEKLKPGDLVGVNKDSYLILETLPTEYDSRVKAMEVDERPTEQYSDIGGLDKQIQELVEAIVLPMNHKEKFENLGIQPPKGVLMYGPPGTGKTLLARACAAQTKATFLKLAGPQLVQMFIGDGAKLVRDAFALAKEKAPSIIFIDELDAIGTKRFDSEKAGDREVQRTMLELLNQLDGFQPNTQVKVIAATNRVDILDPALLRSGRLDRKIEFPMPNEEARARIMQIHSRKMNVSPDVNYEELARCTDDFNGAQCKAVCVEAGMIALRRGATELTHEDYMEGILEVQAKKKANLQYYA
UniProt P29590: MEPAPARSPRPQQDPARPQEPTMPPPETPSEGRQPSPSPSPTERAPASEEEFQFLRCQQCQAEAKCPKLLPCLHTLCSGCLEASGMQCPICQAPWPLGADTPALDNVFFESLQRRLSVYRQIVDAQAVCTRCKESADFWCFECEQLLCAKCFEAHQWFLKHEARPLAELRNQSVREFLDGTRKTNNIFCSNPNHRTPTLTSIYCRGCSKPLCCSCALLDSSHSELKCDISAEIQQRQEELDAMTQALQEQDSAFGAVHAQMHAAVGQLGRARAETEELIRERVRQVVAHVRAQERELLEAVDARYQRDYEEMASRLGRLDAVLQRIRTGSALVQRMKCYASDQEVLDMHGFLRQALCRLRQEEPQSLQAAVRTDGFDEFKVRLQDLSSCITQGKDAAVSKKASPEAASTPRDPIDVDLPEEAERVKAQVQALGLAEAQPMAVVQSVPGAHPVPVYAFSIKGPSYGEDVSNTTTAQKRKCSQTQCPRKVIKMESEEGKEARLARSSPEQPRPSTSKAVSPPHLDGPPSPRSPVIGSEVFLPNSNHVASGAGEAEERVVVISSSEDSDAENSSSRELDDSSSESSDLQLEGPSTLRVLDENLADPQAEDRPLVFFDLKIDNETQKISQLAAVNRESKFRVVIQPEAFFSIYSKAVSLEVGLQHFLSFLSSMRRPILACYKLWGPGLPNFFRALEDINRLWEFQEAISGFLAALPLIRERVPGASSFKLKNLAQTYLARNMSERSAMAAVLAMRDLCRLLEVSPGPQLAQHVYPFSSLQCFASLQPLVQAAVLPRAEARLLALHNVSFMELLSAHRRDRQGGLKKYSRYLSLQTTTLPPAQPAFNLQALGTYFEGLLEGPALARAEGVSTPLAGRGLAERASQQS
UniProt P17987, whole entry, looked up: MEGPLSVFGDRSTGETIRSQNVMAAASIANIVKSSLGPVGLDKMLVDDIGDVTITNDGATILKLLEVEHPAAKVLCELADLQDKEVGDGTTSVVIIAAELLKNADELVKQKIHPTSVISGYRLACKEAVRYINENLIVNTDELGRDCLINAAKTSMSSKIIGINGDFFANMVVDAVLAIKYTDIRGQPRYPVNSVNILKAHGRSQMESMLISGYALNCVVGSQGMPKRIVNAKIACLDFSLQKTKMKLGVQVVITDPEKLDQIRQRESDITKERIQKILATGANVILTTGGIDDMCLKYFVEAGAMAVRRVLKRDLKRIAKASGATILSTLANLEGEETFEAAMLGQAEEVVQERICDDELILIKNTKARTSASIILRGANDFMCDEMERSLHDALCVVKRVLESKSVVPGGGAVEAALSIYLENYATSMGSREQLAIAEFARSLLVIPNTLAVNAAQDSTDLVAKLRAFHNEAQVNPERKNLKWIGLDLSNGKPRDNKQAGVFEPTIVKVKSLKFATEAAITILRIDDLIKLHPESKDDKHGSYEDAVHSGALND
UniProt P29692: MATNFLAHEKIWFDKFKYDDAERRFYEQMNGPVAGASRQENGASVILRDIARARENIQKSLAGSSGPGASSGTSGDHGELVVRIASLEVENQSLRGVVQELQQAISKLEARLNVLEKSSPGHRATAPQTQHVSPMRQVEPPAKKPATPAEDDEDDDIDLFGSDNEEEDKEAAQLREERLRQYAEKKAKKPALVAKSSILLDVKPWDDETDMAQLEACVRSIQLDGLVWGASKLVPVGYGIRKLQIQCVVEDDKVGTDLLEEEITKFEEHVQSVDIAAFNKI
UniProt P21333, whole entry, looked up: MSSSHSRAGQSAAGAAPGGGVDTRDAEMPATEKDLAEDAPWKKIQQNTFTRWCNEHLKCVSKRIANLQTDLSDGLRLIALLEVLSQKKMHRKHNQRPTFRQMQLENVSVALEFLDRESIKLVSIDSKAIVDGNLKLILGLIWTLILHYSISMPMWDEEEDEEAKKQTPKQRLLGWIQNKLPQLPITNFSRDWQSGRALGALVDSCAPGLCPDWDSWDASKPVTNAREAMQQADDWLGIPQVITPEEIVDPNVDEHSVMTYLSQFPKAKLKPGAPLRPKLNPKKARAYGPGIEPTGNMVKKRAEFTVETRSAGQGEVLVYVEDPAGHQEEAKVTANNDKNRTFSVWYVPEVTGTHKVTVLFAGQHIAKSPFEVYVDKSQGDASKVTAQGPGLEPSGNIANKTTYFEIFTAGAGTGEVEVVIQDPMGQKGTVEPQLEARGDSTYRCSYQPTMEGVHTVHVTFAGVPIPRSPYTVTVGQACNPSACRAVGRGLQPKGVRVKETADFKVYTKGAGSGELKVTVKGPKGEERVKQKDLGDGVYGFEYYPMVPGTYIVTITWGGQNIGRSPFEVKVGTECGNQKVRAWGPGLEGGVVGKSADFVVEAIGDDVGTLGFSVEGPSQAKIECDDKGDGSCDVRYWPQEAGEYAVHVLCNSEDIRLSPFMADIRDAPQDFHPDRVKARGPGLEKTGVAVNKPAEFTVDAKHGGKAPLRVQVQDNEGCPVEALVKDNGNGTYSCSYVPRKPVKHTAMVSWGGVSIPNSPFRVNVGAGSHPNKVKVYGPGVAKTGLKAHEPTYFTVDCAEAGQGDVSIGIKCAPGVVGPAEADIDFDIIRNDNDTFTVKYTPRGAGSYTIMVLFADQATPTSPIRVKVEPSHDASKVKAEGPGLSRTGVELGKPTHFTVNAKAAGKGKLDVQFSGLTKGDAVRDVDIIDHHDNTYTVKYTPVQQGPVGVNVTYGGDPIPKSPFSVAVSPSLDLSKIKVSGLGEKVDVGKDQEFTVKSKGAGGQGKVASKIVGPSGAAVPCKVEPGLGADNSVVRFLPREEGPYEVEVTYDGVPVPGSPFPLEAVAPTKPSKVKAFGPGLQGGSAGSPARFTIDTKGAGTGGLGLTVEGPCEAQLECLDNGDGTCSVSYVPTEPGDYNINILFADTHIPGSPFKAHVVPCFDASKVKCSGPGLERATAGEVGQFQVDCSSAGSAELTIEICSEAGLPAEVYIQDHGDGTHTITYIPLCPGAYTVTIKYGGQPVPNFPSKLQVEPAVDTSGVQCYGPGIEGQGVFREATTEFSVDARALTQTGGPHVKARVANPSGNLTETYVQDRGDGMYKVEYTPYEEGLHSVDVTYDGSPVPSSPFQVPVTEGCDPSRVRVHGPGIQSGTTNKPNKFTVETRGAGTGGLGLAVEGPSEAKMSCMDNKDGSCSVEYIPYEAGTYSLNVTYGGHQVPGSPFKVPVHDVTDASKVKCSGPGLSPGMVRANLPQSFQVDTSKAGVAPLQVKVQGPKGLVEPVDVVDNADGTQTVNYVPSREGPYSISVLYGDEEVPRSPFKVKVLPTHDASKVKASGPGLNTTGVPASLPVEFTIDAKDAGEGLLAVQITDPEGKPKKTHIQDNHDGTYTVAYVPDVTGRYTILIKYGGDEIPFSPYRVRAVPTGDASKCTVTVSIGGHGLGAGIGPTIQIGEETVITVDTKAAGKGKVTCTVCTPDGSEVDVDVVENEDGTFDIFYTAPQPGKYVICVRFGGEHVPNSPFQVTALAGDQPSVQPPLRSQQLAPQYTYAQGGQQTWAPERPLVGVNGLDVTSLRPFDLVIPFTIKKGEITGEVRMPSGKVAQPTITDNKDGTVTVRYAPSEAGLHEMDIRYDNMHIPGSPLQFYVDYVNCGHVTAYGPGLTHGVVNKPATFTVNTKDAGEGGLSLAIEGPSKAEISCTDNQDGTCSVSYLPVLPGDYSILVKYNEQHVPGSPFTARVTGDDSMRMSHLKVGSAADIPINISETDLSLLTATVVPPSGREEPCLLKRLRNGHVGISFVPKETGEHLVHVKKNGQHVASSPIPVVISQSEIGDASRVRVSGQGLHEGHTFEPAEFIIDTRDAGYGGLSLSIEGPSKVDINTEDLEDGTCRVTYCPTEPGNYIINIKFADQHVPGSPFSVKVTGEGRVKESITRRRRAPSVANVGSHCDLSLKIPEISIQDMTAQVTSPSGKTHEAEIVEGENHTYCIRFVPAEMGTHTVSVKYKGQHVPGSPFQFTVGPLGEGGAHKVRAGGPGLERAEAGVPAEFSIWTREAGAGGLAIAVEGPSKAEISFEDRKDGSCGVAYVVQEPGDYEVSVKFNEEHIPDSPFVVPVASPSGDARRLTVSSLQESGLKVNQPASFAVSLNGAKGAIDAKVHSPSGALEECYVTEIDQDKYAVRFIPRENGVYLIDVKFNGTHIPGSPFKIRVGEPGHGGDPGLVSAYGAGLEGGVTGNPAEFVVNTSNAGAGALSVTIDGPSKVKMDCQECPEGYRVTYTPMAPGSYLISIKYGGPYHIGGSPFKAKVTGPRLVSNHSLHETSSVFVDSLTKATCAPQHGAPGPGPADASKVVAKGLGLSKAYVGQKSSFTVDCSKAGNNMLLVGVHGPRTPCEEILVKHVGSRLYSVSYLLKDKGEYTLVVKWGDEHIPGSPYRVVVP
UniProt P27448: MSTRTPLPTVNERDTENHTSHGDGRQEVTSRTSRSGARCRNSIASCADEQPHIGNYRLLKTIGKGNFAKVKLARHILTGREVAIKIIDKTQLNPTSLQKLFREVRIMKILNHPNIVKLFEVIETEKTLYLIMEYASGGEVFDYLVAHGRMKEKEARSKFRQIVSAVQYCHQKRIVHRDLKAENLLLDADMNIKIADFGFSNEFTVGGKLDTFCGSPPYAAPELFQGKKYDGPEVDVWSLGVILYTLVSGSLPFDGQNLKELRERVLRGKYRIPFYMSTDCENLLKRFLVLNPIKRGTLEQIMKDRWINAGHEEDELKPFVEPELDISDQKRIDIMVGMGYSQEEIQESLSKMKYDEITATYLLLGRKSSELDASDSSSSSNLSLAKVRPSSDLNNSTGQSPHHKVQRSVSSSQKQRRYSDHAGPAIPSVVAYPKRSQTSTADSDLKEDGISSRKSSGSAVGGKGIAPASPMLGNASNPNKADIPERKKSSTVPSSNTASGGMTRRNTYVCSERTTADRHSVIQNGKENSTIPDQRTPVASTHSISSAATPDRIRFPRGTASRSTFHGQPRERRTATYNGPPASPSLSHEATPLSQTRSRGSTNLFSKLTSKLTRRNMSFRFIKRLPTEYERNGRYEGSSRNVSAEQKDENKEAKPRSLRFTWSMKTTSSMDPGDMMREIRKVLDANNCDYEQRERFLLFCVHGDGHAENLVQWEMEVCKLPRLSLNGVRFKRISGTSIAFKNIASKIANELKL
UniProt P24386: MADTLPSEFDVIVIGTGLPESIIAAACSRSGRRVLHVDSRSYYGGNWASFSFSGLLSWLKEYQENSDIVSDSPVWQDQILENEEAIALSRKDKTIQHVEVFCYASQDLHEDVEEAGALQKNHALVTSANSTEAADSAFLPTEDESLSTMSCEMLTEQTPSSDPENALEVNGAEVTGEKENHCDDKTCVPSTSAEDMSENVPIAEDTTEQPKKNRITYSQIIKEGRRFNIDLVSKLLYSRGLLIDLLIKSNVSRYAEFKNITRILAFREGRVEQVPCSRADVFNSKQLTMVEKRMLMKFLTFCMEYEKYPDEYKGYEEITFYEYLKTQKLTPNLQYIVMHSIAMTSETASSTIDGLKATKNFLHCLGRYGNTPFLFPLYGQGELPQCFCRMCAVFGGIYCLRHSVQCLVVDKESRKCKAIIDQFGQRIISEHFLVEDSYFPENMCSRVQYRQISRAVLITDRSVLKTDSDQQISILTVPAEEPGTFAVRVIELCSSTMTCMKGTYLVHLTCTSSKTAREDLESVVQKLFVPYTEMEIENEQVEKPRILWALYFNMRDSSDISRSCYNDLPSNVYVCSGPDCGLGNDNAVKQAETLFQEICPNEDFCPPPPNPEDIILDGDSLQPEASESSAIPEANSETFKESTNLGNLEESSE
UniProt P27707: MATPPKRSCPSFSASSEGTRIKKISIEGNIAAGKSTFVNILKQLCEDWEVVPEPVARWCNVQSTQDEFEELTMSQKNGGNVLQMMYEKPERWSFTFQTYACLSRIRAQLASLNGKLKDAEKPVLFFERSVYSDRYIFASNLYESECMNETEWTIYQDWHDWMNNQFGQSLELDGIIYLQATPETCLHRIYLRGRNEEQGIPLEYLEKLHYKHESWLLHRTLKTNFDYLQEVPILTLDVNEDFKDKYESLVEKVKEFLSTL

These targets were tested with COC(=O)C#Cc1ccccc1 [methyl 3-phenylpropiolate] (assay: log2 ratio of iodoacetamide-alkyne labeling of the cysteine site, DMSO over compound (competition); higher = stronger covalent engagement of the cysteine by the compound, active = 1 or more). Settings: 500 µM; treatment time 1 h; system: HEK293T cell lysate.
In short: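 HEK293T lysate (2 mg/mL) was incubated with electrophile (500 µM) or vehicle for 1 h at ambient temperature and then with iodoacetamide alkyne for 1 h. Labelled proteins were clicked to sCIP-TMT reagents, pooled, digested, enriched on streptavidin and measured by Orbitrap Eclipse LC-MS/MS with FAIMS, with FragPipe quantification. The per-cysteine log2 competition ratio is mean control-channel reporter intensity over mean compound-channel reporter intensity. Across three replicates with duplicate channels, cysteines quantified in only one replicate were excluded.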

log2 ratio of iodoacetamide-alkyne labeling, inactive:
ANXA7 C363 (UniProt P20073) 0.0125
CSRP1 C167 (UniProt P21291) 0.124
LAP3 C335 (UniProt P28838) -0.0616
APC C352 (UniProt P25054) -0.211
CFL1 C139 (UniProt P23528) 0.409
DDX5 C89 (UniProt P17844) -0.0239
SCP2 C71 (UniProt P22307) 0.386
PSMC3 C387 (UniProt P17980) -0.0995
PML C57 (UniProt P29590) 0.184
UniProt P20719_C233 0.162
TCP1 C357 (UniProt P17987) 0.957
EEF1D C217 (UniProt P29692) 0.177
FLNA C2601 (UniProt P21333) 0.299
TCP1 C76 (UniProt P17987) 0.188
MPG C61 (UniProt P29372) 0.662
UniProt P27448_C46 0.428
CAD C736 (UniProt P27708) 0.212
NDUFS1 C128 (UniProt P28331) -0.111
LMNB1 C110 (UniProt P20700) -0.0185
MAP4 C1008 (UniProt P27816) 0.623
CFL1 C147 (UniProt P23528) 0.053
APC C914 (UniProt P25054) 0.433
DNAJB1 C267 (UniProt P25685) 0.268
EEF1B2 C161 (UniProt P24534) -0.083
APEX1 C93 (UniProt P27695) 0.0645
FLNA C1402 (UniProt P21333) 0.0938
FLNA C478 (UniProt P21333) 0.00171
TCP1 C236 (UniProt P17987) 0.129
PSMC3 C240 (UniProt P17980) 0.0788
ABCD3 C472 (UniProt P28288) 0.697
ACO1 C369 (UniProt P21399) 0.121
RRM1 C26 (UniProt P23921) 0.0708
CHM C564 (UniProt P24386) -0.208
DCK C59 (UniProt P27707) 0.21
RPL17 C144 (UniProt P18621) 0.131
PSMA1 C148 (UniProt P25786) 0.0454
UniProt P28290_C448 0.3

Random excerpt: 3 records from the list
log2 ratio of iodoacetamide-alkyne labeling, inactive:
UniProt P27448_C46 0.428
PSMC3 C387 (UniProt P17980) -0.0995
CAD C736 (UniProt P27708) 0.212
